The experiment deals with Beclin 1 (UniProt Q14457). Description: co-IP; HEK293T lysates in NP-40 buffer with protease inhibitors and PMSF; antibody 2 h, then protein G Dynabeads 2 h; four washes with PBS; immunoblot; cells treated with DMSO or 5 ug/ml flubendazole for 2 h. (In general: In western blotting, separated proteins are transferred to a membrane and probed.)

Protein sequences, listed by entry. Tags and fused reporters are not part of them.
UniProt Q14457: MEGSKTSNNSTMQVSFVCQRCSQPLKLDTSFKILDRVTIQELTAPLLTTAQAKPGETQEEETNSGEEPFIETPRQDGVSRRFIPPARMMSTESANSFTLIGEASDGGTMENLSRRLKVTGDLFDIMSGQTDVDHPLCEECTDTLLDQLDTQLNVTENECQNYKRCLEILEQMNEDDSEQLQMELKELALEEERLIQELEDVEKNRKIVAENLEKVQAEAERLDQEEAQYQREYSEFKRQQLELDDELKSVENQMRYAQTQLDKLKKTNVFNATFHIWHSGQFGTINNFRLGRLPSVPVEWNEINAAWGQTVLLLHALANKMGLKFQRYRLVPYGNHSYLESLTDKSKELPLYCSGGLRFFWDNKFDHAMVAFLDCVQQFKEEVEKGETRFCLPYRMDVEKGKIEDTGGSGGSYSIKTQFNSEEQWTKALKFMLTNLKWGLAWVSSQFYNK
UniProt P10415: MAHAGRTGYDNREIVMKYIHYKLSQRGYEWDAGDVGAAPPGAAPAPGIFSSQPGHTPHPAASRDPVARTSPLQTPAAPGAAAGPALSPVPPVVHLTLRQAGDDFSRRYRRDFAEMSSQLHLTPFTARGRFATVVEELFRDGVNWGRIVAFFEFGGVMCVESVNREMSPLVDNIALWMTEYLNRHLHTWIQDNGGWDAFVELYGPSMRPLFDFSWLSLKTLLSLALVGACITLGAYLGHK

These are yes or no findings as the source states them, for the method shown. In cells and extracts the contact can be indirect. Some entries that bind do so weakly or less than the wild type.

Bcl-2 (from UniProt P10415 1-239): the binding entry was “binds”.

The values are drawn from article PMC4624223.
